PubChem BioAssay AID493246 | Drosophila RNAi Screening Center – 2011
Assay: 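Genome-wide search for dsRNAs that reduce cell number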 (primary screen). Cells: Drosophila Kc and S2R+ cells. Knock-down reagent: long dsRNA against Drosophila genes. Detection: 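Raw, unnormalised count of remaining cells in each well; per-plate z-scores of cell number underlie the calls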. Direction: Kc cell number and S2R+ cell number: higher = more cells remaining. Call rule: 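Active when the per-plate z-score of cell number is 3 or more in the direction of fewer cells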.
In all, the deposit lists about 21,000 reagents; this is a random part of those with a known target gene and a result. Over the whole deposit, 429 (2%) are marked active. 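Values are raw and not normalised between plates; calls rest on per-plate z-scores that were not deposited.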 Reagent sequences are not shown. The record does not give: the amount of reagent, the time to read-out.

The opening 3 entries, ahead of the listing:
no.	gene	amplicon	Kc cell number, rep 1	Kc cell number, rep 2	S2R+ cell number, rep 1	S2R+ cell number, rep 2	Call
1	Ccdc58	DRSC10218	1.47e6	1.54e6	1.24e6	1.25e6	inactive
2	v	DRSC20383	5.59e5		8.54e5		inactive
3	CG43102	DRSC14797	1.50e6	1.65e6	1.02e6	1.04e6	inactive

Results, from the first entry:
no.	gene	amplicon	Kc cell number, rep 1	Kc cell number, rep 2	S2R+ cell number, rep 1	S2R+ cell number, rep 2	Call
1	Ccdc58	DRSC10218	1.47e6	1.54e6	1.24e6	1.25e6	inactive
2	v	DRSC20383	5.59e5		8.54e5		inactive
3	CG43102	DRSC14797	1.50e6	1.65e6	1.02e6	1.04e6	inactive
4	CG43102	DRSC16239	1.13e6	1.27e6	9.80e5	1.09e6	inactive
5	Non3	DRSC16359	1.60e6	1.65e6	1.15e6	1.22e6	inactive
6	CG11911	DRSC00331	1.32e6	1.38e6	1.01e6	1.09e6	inactive
7	Hrd3	DRSC14156	1.42e6	1.61e6	1.16e6	1.23e6	inactive
8	CG15820	DRSC08480	1.28e6	1.43e6	1.17e6	1.18e6	inactive
9	CG32374	DRSC10986	1.35e6	1.51e6	1.22e6	1.29e6	inactive
10	mRpS28	DRSC06939	1.54e6	1.54e6	1.14e6	1.19e6	inactive
11	Duba	DRSC10582	1.31e6	1.34e6	1.23e6	1.15e6	inactive
12	Cnb	DRSC08569	1.38e6	1.44e6	1.21e6	1.28e6	inactive
13	CG33090	DRSC01908	1.33e6	1.32e6	1.26e6	1.32e6	inactive
14	Mgat4a	DRSC09326	1.39e6	1.52e6	1.06e6	1.23e6	inactive
15	Mgat4a	DRSC11070	1.38e6	1.31e6	1.24e6	1.34e6	inactive
16	lncRNA:sphinx	DRSC17199	1.35e6	1.36e6	8.68e5	1.00e6	inactive
17	pdm3	DRSC06076	1.64e6	1.71e6	1.38e6	1.49e6	inactive
18	pdm3	DRSC06490	1.52e6	1.64e6	1.25e6	1.37e6	inactive
19	sip2	DRSC03154	1.63e6	1.41e6	1.10e6	1.20e6	inactive
20	CG7179	DRSC03020	1.66e6	1.65e6	1.21e6	1.39e6	inactive
21	Pat1	DRSC17750	5.72e5		9.56e5		inactive
22	wa-cup	DRSC12511	1.57e6	1.67e6	1.34e6	1.47e6	inactive
23	CG13375	DRSC18621	1.50e6	1.53e6	1.06e6	1.24e6	inactive
24	rho-4	DRSC19761	5.97e5		7.91e5		inactive
25	rho-4	DRSC19762	1.58e6	1.61e6	1.05e6	1.19e6	inactive
26	CG5849	DRSC15893	1.34e6	1.37e6	1.04e6	1.11e6	inactive
27	CG18528	DRSC15340	1.60e6	1.73e6	1.03e6	1.11e6	inactive
28	CG6432	DRSC16039	1.45e6	1.55e6	1.13e6	1.17e6	inactive
29	CG6908	DRSC16131	1.53e6	1.50e6	1.15e6	1.20e6	inactive
30	CG32795	DRSC18609	1.47e6	1.45e6	9.90e5	1.07e6	inactive
31	CG32795	DRSC18610	1.46e6	1.47e6	9.94e5	1.11e6	inactive
32	CG18428	DRSC15326	1.55e6	1.69e6	9.95e5	1.11e6	inactive
33	Balat	DRSC06852	1.42e6	1.49e6	1.20e6	1.32e6	inactive
34	Rbcn-3B	DRSC18574	1.37e6	1.39e6	1.04e6	1.11e6	inactive
35	Lamp1	DRSC03727	1.50e6	1.53e6	1.18e6	2.34e5	inactive
36	CG3117	DRSC00568	1.57e6	1.57e6	1.14e6	1.17e6	inactive
37	CG13032	DRSC09912	1.22e6	1.25e6	1.25e6	1.32e6	inactive
38	CG14096	DRSC10099	1.35e6	1.46e6	1.21e6	1.33e6	inactive
39	Rcd-1	DRSC19569	1.53e6	1.49e6	1.12e6	1.23e6	inactive
40	CG14632 (retired record)	DRSC17942	1.47e6	1.44e6	1.02e6	1.11e6	inactive
41	CG4116	DRSC18348	1.49e6	1.48e6	1.05e6	1.13e6	inactive
42	Pif1	DRSC00582	1.19e6	1.30e6	9.66e5	9.82e5	inactive
43	CG8757	DRSC11039	1.54e6	1.50e6	1.47e6	1.58e6	inactive
44	up	DRSC20382	5.53e5		7.11e5		inactive
45	borr	DRSC02749	1.29e6	1.30e6	1.05e6	1.06e6	inactive
46	fry	DRSC08993	1.58e6	1.56e6	1.19e6	1.33e6	inactive
47	fry	DRSC10172	1.41e6	1.37e6	1.31e6	1.36e6	inactive
48	fry	DRSC10709	1.43e6	1.50e6	1.42e6	1.50e6	inactive
49	fry	DRSC10712	1.43e6	1.55e6	1.30e6	1.25e6	inactive
50	Pldn	DRSC10137	1.69e6	1.75e6	1.33e6	1.58e6	inactive
51	Dp	DRSC07402	1.02e6	1.13e6	5.19e5	6.00e5	inactive
52	CG32447	DRSC11732	1.58e6	1.64e6	1.23e6	1.32e6	inactive
53	CG32447	DRSC11805	1.34e6	1.34e6	1.38e6	1.45e6	inactive
54	CecB	DRSC16605	1.64e6	1.60e6	1.03e6	1.13e6	inactive
55	Vha36-2	DRSC06294	1.37e6	1.48e6	1.21e6	1.29e6	inactive
56	CG15731	DRSC19698	1.69e6	1.59e6	1.11e6	1.26e6	inactive
57	CheB53b	DRSC05613	5.80e5		7.49e5		inactive
58	CG7739	DRSC10910	1.52e6	1.52e6	1.21e6	1.44e6	inactive
59	cerv	DRSC19681	1.40e6	1.44e6	1.02e6	1.11e6	inactive
